Reference: the supplement of paper PMC4807443
Structures can show the parent of a compound that is named as a salt. This is one part of the list. The numbers are fractions of the control, whatever unit the source prints. Most entries show no effect beyond the scatter of the controls.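 MIN6, a mouse insulinoma beta-cell line, stably carries a lentiviral reporter where Pdx1 and Ins1 promoters each drive a nuclear fluorescent protein; Hoechst staining and automated imaging counted cells. Drugs were candidate hits if Ins1 promoter readout exceeded two median absolute deviations from DMSO controls while Pdx1 activity stayed near normal.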

test system: MIN6; experiment: % Pdx1+ Ins1+ (double-positive, mature) cells relative to DMSO control (fold of DMSO control); higher = more mature Ins1 promoter-active cells; details: 8.5 µM; 48 h; glucose 5 mM

| SMILES | % Pdx1+ Ins1+ |
| --- | --- |
| CN(C)C(=O)Oc1cccc([N+](C)(C)C)c1 [Neostigmine bromide] | 1.07 |
| CNC(=O)Oc1ccc2c(c1)[C@]1(C)CCN(C)[C@@H]1N2C [Eserine sulfate, physostigmine sulfate] | 0.875 |
| CN1CCc2cc3c(cc2C1O)OCO3 (configuration not stated) [Hydrastinine hydrochloride] | 1.09 |
| CCNCC(O)c1cccc(O)c1 (configuration not stated) [Etilefrine hydrochloride] | 1.02 |
| CN1[C@@H]2CC[C@H]1C[C@@H](OC(=O)C(CO)c1ccccc1)C2 (some centres not stated) [Atropine sulfate monohydrate] | 0.974 |
| CC(C)C[C@H]1C(=O)N2CCC[C@H]2[C@]2(O)O[C@](NC(=O)[C@@H]3C=C4c5cccc6[nH]c(Br)c(c56)C[C@H]4N(C)C3)(C(C)C)C(=O)N12 [Bromocryptine mesylate] | 0.709 |
| CNC(C)(C)Cc1ccccc1 [Mephentermine hemisulfate] | 0.892 |
| CN1Cc2c(ccc3c2OCO3)C2C(O)Cc3cc4c(cc3C21)OCO4 (stereo not drawn) [Chelidonine (+)] | 0.942 |
| CN1CCC2=C[C@H](O)[C@H]3OC(=O)c4cc5c(cc4[C@H]3[C@@H]21)OCO5 [Hippeastrine hydrobromide] | 0.916 |
| CC1OC(OC2/C=C/C=C/C=C/C=C/CC/C=C/C=C/[C@H](C)[C@@H](O)[C@@H](C)[C@H](C)OC(=O)CC(O)CC(O)CC(O)CCC(O)C(O)C[C@]3(O)CC(O)C(C(=O)O)C(C2)O3)C(O)C(N)C1O (some centres not stated) [Nystatine] | 0.963 |
| NCCC(O)C(=O)NC1CC(N)C(OC2OC(CN)C(O)[C@H](O)[C@@H]2N)[C@H](OC2O[C@H](CO)[C@@H](O)[C@@H]2O)[C@@H]1O (some centres not stated) [Butirosin disulfate salt] | 0.918 |
| Cc1cc2c(C(C)C)c(O)c(O)c(C=O)c2c(O)c1-c1c(C)cc2c(C(C)C)c(O)c(O)c(C=O)c2c1O [Gossypol] | 0.833 |
| O=c1[nH]c2ccccc2n1C1CCN(CCCC(c2ccc(F)cc2)c2ccc(F)cc2)CC1 [Pimozide] | 0.782 |
| CC[C@H]1CN2CC[C@H]1C[C@H]2[C@H](O)c1ccnc2ccc(OC)cc12 [Hydroquinine hydrobromide hydrate] | 0.896 |
| C[C@@H]1O[C@@H](O[C@@H]2C=C3CC[C@@H]4[C@H](CC[C@]5(C)[C@@H](c6ccc(=O)oc6)CC[C@]45O)[C@@]3(C)CC2)[C@H](O)[C@H](O)[C@H]1O [Proscillaridin A] | 0.795 |
| C#CCN(C)[C@H](C)Cc1ccccc1 [Selegiline hydrochloride] | 0.851 |
| C[C@]12CC[C@@H](O)C[C@H]1CC[C@@H]1[C@@H]2CC[C@]2(C)C(=O)CC[C@@H]12 [3-alpha-Hydroxy-5-beta-androstan-17-one] | 0.843 |
| COc1ccc(CC2c3cc(OC)c(OC)cc3CCN2C)cc1OC (racemic) [Laudanosine (R,S)] | 0.951 |
| CCCC(C)(COC(N)=O)COC(=O)NC(C)C (configuration not stated) [Carisoprodol] | 0.882 |
| C[C@@]12C(=O)OC(=O)[C@]1(C)[C@H]1CC[C@@H]2O1 [Cantharidin] | 0.875 |
| CCC1(C)CC(=O)NC(=O)C1 [Bemegride] | 0.962 |

Molecules shown so far containing four or more nitrogen atoms, in the order listed:

| SMILES | % Pdx1+ Ins1+ |
| --- | --- |
| CC(C)C[C@H]1C(=O)N2CCC[C@H]2[C@]2(O)O[C@](NC(=O)[C@@H]3C=C4c5cccc6[nH]c(Br)c(c56)C[C@H]4N(C)C3)(C(C)C)C(=O)N12 [Bromocryptine mesylate] | 0.709 |
| NCCC(O)C(=O)NC1CC(N)C(OC2OC(CN)C(O)[C@H](O)[C@@H]2N)[C@H](OC2O[C@H](CO)[C@@H](O)[C@@H]2O)[C@@H]1O (some centres not stated) [Butirosin disulfate salt] | 0.918 |

Carrying on:

| SMILES | % Pdx1+ Ins1+ |
| --- | --- |
| CN1C2CCC1CC(O)C2 (configuration not stated) [Tropine] | 0.942 |
| C[N+]1(C)CCCC(OC(=O)C(O)(c2ccccc2)c2ccccc2)C1 (configuration not stated) [Mepenzolate bromide] | 0.935 |
| OC(c1ccccc1)(c1ccccc1)C1CCNCC1 [Azacyclonol] | 1.12 |
| O=C(CCCN1CCC(n2c(=O)[nH]c3ccccc32)CC1)c1ccc(F)cc1 [Benperidol] | 0.842 |
| COc1ccc(C(=O)OC2C[C@H]3CC[C@@H](C2)N3C)cc1OC (some centres not stated) [Convolamine hydrochloride] | 0.853 |
| C[C@H]1CC[C@]2(NC1)O[C@H]1C[C@H]3[C@@H]4CC[C@H]5C[C@@H](O[C@@H]6O[C@H](CO)[C@H](O[C@@H]7O[C@H](CO)[C@@H](O)[C@H](O[C@@H]8OC[C@@H](O)[C@H](O)[C@H]8O)[C@H]7O[C@@H]7O[C@H](CO)[C@@H](O)[C@H](O)[C@H]7O)[C@H](O)[C@H]6O)CC[C@]5(C)[C@H]4CC[C@]3(C)[C@H]1[C@@H]2C [Tomatine] | 0.754 |
| COc1cc2c(cc1O)C[C@H]1c3c(cc(O)c(OC)c3-2)CCN1C [Boldine] | 0.886 |
| C[C@@H]1CN([C@H]2CC[C@](C#N)(c3ccc(F)cc3)CC2)CC[C@]1(C(=O)O)c1ccccc1 [Levocabastine hydrochloride] | 1.11 |
| CCC(=O)O[C@H]1CC[C@H]2[C@@H]3CCC4=CC(=O)CC[C@]4(C)[C@H]3CC[C@]12C [Testosterone propionate] | 0.992 |
| COc1ccc(OC)c(C(O)C(C)N)c1 (configuration not stated) [Methoxamine hydrochloride] | 0.851 |
| C[C@@H]1CC[C@]2(NC1)O[C@H]1C[C@H]3[C@@H]4CC=C5C[C@@H](O)CC[C@]5(C)[C@H]4CC[C@]3(C)[C@H]1[C@@H]2C [Solasodine] | 0.94 |
| CN1C2CC(=O)CC1C(O)C2 (configuration not stated) [6-Hydroxytropinone] | 1.02 |
| CO[C@@H]1C=C2CCN(C)[C@@H]2C2c3cc4c(cc3C(=O)OC21)OCO4 (some centres not stated) [Ungerine nitrate] | 0.818 |
| CN1C(=O)CCS(=O)(=O)C1c1ccc(Cl)cc1 (configuration not stated) [Chlormezanone] | 1.16 |
| CC(=O)[C@H]1CC[C@H]2[C@@H]3CC[C@H]4C[C@H](O)CC[C@]4(C)[C@H]3C(=O)C[C@]12C [Alfaxalone] | 0.941 |
| CCCN1CCC[C@@H]2Cc3n[nH]cc3C[C@H]21 [(-)-Quinpirole hydrochloride] | 0.895 |
| CC(C)c1cccc(C(C)C)c1O [Propofol] | 1.05 |
| C[C@]12CC[C@H](O)C[C@H]1CC[C@@H]1[C@@H]2CC[C@]2(C)[C@@H](C3=CC(=O)OC3)CC[C@]12O [Digitoxigenin] | 0.937 |
| CN1CCc2cc3c(cc2[C@H]1[C@@H]1OC(=O)c2c1ccc1c2OCO1)OCO3 [Bicuculline (+)] | 0.946 |
| COC1=CC(=O)O[C@@H](/C=C/c2ccccc2)C1 [Kawain] | 1.13 |
| Oc1ccc2c3c1O[C@H]1[C@@H](O)CC[C@@]4(O)[C@@H](C2)N(CC2CCC2)CC[C@]314 [Nalbuphine hydrochloride] | 1.16 |
